Here are results for 3 substances from paper PMC6675892, “Hepatitis B Virus X Protein Function Requires Zinc Binding” (Journal of Virology, 2019).

Sequences of proteins named here, by UniProt entry; tags and fusion partners are left off. Residues count along the entry.
UniProt Q16531: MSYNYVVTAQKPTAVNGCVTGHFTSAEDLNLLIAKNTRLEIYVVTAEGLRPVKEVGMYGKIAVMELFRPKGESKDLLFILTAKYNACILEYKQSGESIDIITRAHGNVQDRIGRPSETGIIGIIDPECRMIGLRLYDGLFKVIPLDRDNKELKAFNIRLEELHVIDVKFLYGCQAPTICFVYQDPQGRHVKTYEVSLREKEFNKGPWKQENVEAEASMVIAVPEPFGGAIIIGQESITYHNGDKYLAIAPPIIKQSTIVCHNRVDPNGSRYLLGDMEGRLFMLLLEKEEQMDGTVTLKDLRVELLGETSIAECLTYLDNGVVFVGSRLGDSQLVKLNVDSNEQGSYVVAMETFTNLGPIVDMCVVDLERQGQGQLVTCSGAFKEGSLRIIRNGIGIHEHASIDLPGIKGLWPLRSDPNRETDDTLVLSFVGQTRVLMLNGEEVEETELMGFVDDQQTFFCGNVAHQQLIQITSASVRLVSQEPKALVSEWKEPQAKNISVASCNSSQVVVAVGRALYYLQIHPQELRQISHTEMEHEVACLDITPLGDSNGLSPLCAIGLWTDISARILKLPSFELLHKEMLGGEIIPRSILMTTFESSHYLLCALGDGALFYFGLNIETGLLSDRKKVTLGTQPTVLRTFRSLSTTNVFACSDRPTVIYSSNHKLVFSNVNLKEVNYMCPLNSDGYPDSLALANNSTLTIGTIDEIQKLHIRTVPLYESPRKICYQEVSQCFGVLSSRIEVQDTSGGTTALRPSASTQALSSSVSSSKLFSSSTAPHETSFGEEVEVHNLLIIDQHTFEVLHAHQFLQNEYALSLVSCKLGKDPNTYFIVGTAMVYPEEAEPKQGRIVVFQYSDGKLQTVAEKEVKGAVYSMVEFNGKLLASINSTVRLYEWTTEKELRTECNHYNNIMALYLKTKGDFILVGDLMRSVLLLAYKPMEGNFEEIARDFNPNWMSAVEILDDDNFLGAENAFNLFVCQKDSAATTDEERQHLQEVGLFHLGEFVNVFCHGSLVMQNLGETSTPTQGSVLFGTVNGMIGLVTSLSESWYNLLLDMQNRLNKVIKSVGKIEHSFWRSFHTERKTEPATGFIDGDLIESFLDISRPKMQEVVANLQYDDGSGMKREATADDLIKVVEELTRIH
UniProt P11207: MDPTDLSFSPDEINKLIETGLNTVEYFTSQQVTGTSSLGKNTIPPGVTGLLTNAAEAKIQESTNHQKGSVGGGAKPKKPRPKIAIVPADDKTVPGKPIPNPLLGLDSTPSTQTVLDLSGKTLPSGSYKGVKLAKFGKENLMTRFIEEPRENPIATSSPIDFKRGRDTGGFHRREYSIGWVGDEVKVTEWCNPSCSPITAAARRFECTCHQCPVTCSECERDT
UniProt P02769, residues 25-607: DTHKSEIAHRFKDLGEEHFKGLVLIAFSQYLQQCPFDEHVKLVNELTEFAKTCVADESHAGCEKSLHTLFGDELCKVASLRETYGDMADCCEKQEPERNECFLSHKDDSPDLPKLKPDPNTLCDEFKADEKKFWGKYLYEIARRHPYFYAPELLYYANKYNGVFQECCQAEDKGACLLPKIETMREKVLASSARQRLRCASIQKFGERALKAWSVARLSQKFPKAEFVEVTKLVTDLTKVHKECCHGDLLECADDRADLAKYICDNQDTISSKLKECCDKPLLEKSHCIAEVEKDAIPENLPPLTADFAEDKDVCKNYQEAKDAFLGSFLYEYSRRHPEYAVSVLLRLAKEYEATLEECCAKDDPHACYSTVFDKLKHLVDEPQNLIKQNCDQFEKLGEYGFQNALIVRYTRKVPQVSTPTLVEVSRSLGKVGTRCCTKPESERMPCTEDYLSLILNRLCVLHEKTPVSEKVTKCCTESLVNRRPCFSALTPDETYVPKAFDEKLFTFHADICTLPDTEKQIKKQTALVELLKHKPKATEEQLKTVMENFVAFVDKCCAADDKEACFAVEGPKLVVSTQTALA

Results are given in words; binding and its absence hold for the method and conditions named.

The target of one assay is DDB1 (UniProt Q16531). In words: AUC; sedimentation velocity at 20 C, absorbance at 280 nm, c(s) distribution (SEDFIT), each protein in its final storage buffer; both purified.
For assay [1], the target named is SV5-V (paramyxovirus SV5) (UniProt P11207). The assay is described as above.
The target of assay [2] is T1, GST-DDB1 (UniProt Q16531 1-1140).
T1 construct: also called glutathione S-transferase (GST)-DDB1; not shown: GST, N-terminal, kept
Put plainly: AlphaScreen or HTRF; TR-FRET competition; 3 nM coexpressed His-HBx:GST-DDB1 complex preincubated with increasing untagged competitor 1 h at room temperature; Eu-cryptate anti-His and d2 anti-GST antibodies; 20 mM HEPES pH 7.2, 50 mM NaCl, 0.1 mg/ml BSA, 0.01% Brij-35, 0.5 mM TCEP; both purified.

For assay [3], the target named is T1, GST-DDB1. In words: AlphaScreen or HTRF; TR-FRET competition; 5 nM His-HBx and 5 nM GST-DDB1 expressed separately, preincubated with increasing untagged competitor 30 min at room temperature; Eu-cryptate anti-His and d2 anti-GST antibodies; 25 mM HEPES pH 7.2, 400 mM NaCl, 0.1 mg/ml BSA, 0.01% Brij-35, 0.5 mM TCEP; both purified.

As to “DDB1 (from UniProt Q16531 1-1140) (other; other documents disagree on this pair)”, the binding result with DDB1 is given as “no binding”. Regarding SV5-V (from UniProt P11207 1-222), the binding entry in assay [1] was “no binding”.

Turning to “bovine serum albumin (from UniProt P02769 25-607)”, the results for the binding entry with GST-DDB1 [2] and with GST-DDB1 [3] were “no binding (tested: >100,000 nM)” and “no binding (tested: >3,000 nM)”, respectively.
